Some of the results follow.
Compound: NCC(=O)Nc1ccc(-n2nc(C(F)(F)F)cc2-c2ccc3c(ccc4ccccc43)c2)cc1
Assay: log2 fold change, soluble protein after heating vs DMSO (PISA); higher = thermal stabilisation; K562 cells, 10 uM, 30 min; active = over 0.2 and 3.5 SD of the protein, either way, in both replicates (recomputed)
In short: (§1)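 Soluble protein was quantified by TMTpro 16plex LC-MS/MS after channel sums were equalised. It was obtained as the supernatant after 21,000xg for 90 min from pooled aliquots of K562 cells (2×10^6 cells/mL, 10 μM compound, 30 min) heated for 3 min across 48°C-58°C and extracted in PBS with 0.5% NP-40 at 4°C. Thermal stability values are relative to control samples and come from duplicates. They are given as log2 fold changes.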

Sequences of proteins named here, by UniProt entry; tags and fusion partners are left off. A change or cut given only in a name is not applied to a line headed by its entry.
UniProt Q92503: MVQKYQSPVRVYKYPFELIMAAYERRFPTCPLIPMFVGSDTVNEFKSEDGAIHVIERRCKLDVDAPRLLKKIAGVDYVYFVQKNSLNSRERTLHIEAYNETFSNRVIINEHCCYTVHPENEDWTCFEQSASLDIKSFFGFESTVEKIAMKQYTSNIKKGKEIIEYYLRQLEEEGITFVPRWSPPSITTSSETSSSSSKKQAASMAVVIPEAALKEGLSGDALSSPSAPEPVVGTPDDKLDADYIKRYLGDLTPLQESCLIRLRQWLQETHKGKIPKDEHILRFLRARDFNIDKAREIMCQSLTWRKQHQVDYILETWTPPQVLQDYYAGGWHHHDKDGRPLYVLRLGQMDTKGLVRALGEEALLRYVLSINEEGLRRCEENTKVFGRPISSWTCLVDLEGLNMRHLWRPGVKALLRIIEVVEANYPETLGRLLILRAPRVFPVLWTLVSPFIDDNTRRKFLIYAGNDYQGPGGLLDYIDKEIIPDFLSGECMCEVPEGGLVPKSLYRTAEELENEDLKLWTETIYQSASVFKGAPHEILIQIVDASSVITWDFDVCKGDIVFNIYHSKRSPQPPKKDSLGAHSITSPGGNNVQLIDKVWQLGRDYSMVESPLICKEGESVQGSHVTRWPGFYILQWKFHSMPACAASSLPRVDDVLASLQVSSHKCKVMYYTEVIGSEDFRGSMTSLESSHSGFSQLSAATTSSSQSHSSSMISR
UniProt Q8N9R8: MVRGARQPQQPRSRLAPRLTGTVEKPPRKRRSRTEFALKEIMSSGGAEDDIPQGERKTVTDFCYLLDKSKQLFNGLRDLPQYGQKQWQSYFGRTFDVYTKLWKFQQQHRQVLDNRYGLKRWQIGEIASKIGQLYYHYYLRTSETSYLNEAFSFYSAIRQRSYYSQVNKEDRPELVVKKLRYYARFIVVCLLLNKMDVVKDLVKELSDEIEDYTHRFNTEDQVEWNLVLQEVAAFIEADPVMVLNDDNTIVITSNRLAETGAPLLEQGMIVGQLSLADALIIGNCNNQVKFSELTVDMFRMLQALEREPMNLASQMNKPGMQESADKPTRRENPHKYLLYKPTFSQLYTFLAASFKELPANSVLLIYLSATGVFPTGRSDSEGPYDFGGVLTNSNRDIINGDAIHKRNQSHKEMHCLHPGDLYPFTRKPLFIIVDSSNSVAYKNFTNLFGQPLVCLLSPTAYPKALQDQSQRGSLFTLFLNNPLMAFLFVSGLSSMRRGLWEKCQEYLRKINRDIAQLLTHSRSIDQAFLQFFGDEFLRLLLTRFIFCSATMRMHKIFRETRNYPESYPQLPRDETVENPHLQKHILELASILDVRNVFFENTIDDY
UniProt Q96FQ6: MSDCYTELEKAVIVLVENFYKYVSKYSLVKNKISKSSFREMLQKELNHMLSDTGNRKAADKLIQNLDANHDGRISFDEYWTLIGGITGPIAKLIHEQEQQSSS
UniProt Q8IZE3: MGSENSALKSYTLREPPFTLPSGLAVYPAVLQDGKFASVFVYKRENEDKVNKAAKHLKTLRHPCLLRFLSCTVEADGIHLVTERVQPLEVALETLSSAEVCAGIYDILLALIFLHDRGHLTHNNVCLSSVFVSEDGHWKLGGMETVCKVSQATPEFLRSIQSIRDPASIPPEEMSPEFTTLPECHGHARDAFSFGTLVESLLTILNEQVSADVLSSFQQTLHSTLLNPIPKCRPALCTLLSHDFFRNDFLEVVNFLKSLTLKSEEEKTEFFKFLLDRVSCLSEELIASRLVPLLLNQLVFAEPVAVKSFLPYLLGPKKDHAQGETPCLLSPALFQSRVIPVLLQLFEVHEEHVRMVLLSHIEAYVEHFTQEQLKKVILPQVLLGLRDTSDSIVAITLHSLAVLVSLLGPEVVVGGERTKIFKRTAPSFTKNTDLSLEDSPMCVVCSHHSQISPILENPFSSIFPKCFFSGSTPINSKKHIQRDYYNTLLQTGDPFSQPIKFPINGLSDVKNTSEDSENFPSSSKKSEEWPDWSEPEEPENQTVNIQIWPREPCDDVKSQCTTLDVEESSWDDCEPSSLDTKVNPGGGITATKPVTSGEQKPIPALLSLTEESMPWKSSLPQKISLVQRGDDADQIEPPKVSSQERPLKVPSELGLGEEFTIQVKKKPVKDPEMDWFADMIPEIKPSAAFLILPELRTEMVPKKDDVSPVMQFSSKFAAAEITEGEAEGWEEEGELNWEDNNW
UniProt P29034: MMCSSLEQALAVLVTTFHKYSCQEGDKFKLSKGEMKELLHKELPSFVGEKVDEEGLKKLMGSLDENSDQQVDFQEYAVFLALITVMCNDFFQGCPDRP
UniProt Q5PRF9: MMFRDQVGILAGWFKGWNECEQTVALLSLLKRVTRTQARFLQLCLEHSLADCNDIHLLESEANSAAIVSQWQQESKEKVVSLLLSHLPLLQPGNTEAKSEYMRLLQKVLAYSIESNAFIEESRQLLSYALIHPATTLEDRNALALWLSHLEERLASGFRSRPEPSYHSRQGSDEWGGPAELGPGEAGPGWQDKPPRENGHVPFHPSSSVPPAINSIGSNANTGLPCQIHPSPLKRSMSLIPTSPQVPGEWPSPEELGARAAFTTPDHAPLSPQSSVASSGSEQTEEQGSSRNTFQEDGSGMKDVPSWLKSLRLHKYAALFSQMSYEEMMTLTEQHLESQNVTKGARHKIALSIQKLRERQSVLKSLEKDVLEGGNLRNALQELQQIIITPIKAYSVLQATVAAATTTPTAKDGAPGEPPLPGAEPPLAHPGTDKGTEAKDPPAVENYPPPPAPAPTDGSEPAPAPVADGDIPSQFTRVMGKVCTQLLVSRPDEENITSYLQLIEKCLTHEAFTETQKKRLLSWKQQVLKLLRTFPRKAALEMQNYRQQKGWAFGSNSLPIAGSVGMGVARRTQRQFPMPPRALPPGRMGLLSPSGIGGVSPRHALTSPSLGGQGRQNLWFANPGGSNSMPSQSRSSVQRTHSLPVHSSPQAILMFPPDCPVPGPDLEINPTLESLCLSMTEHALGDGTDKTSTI
UniProt P23297: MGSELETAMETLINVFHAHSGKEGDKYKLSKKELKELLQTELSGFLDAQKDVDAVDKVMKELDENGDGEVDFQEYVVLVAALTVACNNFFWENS
UniProt Q9NPB0: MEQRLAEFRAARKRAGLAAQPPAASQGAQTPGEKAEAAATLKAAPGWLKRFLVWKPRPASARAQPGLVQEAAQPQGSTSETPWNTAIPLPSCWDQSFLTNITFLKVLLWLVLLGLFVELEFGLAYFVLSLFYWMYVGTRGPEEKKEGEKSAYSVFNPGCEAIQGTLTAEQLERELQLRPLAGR
UniProt P28702: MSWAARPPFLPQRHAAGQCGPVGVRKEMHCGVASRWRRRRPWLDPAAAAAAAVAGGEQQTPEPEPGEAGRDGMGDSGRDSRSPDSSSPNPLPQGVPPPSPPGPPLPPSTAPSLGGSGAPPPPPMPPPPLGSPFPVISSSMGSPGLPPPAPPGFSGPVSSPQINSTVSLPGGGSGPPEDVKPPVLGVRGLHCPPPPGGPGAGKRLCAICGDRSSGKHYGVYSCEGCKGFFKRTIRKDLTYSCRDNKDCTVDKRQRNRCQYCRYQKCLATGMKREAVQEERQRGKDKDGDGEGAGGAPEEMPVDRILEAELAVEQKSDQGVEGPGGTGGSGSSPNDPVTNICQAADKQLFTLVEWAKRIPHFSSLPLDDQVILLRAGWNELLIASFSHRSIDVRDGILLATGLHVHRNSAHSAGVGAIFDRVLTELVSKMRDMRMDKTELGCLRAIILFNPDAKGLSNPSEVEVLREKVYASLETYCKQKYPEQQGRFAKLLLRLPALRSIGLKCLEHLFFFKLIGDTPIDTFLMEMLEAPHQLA
UniProt Q96IW7: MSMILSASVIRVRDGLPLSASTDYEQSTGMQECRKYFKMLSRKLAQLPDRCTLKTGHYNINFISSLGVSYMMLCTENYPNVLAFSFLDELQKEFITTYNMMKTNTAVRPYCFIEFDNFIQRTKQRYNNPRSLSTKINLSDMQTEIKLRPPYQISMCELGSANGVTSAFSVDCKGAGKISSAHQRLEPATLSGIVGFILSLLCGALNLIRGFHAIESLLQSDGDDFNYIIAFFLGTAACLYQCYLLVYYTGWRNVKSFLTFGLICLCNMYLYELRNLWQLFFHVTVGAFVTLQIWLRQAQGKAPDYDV
UniProt Q99470: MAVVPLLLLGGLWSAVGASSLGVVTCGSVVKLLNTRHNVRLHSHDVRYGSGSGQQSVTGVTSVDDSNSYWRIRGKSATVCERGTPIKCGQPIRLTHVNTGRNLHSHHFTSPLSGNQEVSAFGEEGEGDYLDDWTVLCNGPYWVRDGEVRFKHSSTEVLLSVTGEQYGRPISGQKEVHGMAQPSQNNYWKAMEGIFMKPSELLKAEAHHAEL
UniProt Q86WG5: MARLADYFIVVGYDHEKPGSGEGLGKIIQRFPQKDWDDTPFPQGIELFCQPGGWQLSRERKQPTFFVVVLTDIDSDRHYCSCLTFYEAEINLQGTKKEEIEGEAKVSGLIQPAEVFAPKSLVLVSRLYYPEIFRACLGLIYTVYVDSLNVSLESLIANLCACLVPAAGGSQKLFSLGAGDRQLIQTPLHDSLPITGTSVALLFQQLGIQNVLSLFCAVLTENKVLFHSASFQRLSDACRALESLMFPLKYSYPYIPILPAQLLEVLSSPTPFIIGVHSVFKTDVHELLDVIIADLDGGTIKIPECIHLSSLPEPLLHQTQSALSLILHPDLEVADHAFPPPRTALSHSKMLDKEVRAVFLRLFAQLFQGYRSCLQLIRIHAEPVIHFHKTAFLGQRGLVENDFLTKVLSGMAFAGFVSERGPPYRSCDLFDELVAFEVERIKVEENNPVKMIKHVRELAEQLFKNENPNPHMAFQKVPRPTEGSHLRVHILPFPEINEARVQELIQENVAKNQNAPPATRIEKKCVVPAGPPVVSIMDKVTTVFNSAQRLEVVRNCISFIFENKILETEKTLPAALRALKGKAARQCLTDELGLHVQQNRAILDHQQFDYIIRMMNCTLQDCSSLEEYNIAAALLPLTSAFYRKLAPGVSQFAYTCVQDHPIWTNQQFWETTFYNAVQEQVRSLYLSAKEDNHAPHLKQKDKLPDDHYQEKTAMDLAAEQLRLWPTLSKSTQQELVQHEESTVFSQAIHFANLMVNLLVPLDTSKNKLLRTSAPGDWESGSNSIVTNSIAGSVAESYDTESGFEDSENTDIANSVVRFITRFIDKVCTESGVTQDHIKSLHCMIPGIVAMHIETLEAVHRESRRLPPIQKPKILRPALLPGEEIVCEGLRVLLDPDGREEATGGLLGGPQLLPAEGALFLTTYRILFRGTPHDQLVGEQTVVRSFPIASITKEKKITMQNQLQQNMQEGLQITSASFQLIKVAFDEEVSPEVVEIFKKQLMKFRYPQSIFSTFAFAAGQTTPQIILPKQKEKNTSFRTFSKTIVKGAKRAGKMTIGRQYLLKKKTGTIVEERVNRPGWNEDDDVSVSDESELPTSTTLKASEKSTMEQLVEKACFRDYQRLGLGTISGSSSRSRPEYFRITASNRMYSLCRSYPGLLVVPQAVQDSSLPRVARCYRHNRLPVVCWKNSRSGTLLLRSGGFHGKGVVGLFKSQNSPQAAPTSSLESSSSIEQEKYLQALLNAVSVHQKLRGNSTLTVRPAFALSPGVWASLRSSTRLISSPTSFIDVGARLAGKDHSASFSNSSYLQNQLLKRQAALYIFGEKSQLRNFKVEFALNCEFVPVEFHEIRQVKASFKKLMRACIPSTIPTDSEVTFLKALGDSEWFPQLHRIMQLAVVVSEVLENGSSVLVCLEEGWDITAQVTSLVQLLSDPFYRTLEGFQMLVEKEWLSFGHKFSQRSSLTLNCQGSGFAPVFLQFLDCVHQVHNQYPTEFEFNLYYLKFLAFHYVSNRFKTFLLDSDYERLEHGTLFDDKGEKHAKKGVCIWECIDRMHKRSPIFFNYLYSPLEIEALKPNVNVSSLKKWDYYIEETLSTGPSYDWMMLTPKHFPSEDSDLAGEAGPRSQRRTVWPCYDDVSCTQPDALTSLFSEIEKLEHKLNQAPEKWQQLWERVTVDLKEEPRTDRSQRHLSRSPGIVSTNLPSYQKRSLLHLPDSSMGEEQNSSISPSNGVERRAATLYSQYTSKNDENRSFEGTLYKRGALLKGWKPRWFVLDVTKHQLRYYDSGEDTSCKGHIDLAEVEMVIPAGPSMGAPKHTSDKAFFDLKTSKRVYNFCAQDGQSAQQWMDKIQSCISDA
UniProt P48443: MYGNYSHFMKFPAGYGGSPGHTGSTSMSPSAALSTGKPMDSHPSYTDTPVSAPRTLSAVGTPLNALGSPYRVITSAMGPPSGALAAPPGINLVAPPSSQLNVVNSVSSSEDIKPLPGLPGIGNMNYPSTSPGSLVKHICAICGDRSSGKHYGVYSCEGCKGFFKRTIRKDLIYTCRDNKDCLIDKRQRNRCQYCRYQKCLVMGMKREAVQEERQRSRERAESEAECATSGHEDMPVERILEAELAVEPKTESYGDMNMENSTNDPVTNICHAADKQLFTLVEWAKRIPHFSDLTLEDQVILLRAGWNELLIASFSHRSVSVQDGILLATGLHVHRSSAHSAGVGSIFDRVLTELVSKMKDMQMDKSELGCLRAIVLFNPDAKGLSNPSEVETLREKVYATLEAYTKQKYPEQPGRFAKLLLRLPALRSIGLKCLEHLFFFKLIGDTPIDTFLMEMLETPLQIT

Target | log2 fold change
SDHB, A0A087WXX8 | inactive: -0.039
SEC14L1 isoform 2 (UniProt Q92503) | inactive: 0.081
SCAI isoform 2 (UniProt Q8N9R8) | inactive: 0.06
S100A16 (UniProt Q96FQ6) | inactive: -0.17
RTN4 isoform 5 (UniProt Q9NQC3) | inactive: -0.052
SAP130 isoform 3 (UniProt Q9H0E3) | inactive: -0.104
SCYL3 isoform 2 (UniProt Q8IZE3) | inactive: -0.055
S100A14 (UniProt Q9HCY8) | inactive: 0.078
SCAMP3 isoform 2 (UniProt O14828) | inactive: -0.114
RUBCN (UniProt Q92622) | inactive: -0.208
RTL8C (UniProt A6ZKI3) | inactive: -0.014
RTL10 (UniProt Q7L3V2) | inactive: -0.134
S100A2 (UniProt P29034) | inactive: -0.149

Compound: Nc1ccccc1NC(=O)c1ccc(CNC(=O)OCc2cccnc2)cc1 [entinostat]
Assay: as above
In short: as §1

Target | log2 fold change
SDCBP isoform 2 (UniProt O00560) | inactive: 0.004
RWDD3 (UniProt Q9Y3V2) | inactive: 0.005
SEC14L1 isoform 2 (UniProt Q92503) | inactive: -0.163
SAMD4B (UniProt Q5PRF9) | inactive: 0.133
S100A1 (UniProt P23297) | inactive: -0.102
SCAF1 (UniProt Q9H7N4) | inactive: -0.273
SAYSD1 (UniProt Q9NPB0) | inactive: 0.139
RXRB isoform 3 (UniProt P28702) | inactive: -0.014

Compound: O=C(CCCCCCC(=O)Nc1ccccc1)NO [vorinostat]
Assay: as above
In short: as §1

Target | log2 fold change
SDCBP isoform 2 (UniProt O00560) | inactive: -0.01
SEC22A (UniProt Q96IW7) | inactive: 0.16
SDHB, A0A087WXX8 | inactive: -0.01
SEC14L1 isoform 2 (UniProt Q92503) | inactive: -0.015
SATB2 (UniProt Q9UPW6) | inactive: 0.047
SCRIB isoform 3 (UniProt Q14160) | inactive: 0.005
SDF2 (UniProt Q99470) | inactive: -0.057
SAMD4B (UniProt Q5PRF9) | inactive: -0.069
RTN4 isoform 5 (UniProt Q9NQC3) | inactive: -0.079
SAP130 isoform 3 (UniProt Q9H0E3) | inactive: 0.058
SBF2 (UniProt Q86WG5) | inactive: 0.08
SCYL3 isoform 2 (UniProt Q8IZE3) | inactive: 0.031
RXRG (UniProt P48443) | inactive: -0.028
RTL8C (UniProt A6ZKI3) | inactive: 0.103
RTL10 (UniProt Q7L3V2) | inactive: 0.003
